The values below come from patent US20030129193A1 (priority 2001, published 2003).

For the experiment, the target named is T1, recombinant, depyrogenated truncated Tissue Factor (amino acids 1-219), secreted into the periplasm of E. coli from vector pswc7 (human), P13726.
T1 chain: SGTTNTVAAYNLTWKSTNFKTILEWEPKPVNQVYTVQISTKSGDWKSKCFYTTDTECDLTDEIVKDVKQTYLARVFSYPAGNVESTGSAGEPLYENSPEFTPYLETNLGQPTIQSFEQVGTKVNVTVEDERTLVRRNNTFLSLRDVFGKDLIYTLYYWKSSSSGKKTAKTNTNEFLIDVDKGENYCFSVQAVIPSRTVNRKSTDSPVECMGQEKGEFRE
Nature of the experiment: SPR (Biacore), CM5 chip; tTF immobilised by amine coupling (700 RU) or captured by anti-TF antibody (300 RU); tTF injected alone or after preincubation with LPS 10 µg/ml. Particulars: remark: other sources report otherwise.

These are yes or no findings as the source states them, for the method shown.

B1: recombinant, depyrogenated truncated Tissue Factor (amino acids 1-219), secreted into the periplasm of E. coli from vector pswc7, P13726 33-251 (receptor, human, UniProt P13726 33-251, looked up)
chain: SGTTNTVAAYNLTWKSTNFKTILEWEPKPVNQVYTVQISTKSGDWKSKCFYTTDTECDLTDEIVKDVKQTYLARVFSYPAGNVESTGSAGEPLYENSPEFTPYLETNLGQPTIQSFEQVGTKVNVTVEDERTLVRRNNTFLSLRDVFGKDLIYTLYYWKSSSSGKKTAKTNTNEFLIDVDKGENYCFSVQAVIPSRTVNRKSTDSPVECMGQEKGEFRE
Take B1: the binding result is given as “no binding (tested: 30 pg/ml (so in the source))”.
